Test results taken from paper PMC6572760.
No constants are given. Whether binding was seen depends on the method and setting. Binding seen in cells or lysates may run through a third protein. A yes stands for co-enrichment or nearness to the bait. Other partners may have been found. Where a sequence is shown, tags or fusion partners need not be part of it.

Target: T1, Ubp13-HKMTmyc (S. cerevisiae) (UniProt P38187)
T1 sequence: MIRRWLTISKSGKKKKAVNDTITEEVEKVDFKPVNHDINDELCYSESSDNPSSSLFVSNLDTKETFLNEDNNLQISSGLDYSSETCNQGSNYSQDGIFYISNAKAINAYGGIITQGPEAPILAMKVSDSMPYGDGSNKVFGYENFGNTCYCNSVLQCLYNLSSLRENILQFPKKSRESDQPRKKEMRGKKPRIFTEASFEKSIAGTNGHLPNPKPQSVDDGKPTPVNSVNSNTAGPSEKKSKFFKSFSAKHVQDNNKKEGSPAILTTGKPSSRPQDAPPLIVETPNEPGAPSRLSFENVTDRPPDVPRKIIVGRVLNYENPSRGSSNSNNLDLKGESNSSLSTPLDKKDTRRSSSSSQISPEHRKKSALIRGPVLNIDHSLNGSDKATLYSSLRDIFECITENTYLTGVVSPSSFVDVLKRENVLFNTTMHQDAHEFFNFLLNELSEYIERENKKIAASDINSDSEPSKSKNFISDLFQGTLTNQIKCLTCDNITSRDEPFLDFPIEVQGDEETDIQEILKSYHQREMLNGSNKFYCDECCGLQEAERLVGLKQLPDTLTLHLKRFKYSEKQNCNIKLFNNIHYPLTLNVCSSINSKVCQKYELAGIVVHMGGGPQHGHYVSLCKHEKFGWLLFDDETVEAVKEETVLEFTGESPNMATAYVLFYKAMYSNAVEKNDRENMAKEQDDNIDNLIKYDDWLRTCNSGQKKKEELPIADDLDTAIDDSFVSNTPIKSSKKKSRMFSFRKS
Experiment: proximity labelling; M-track protein-protein proximity assay in living yeast: bait fused to HKMTmyc tri-methylates the H3 moiety of Hog1-protA-H3 on close proximity; cells treated with 1 M sorbitol for 40 min (unstressed cells also tested); me3K9H3 over HA signal by Western blot of urea extracts, compared with a strain expressing only Hog1-protA-H3

binding: binds
B1: Hog1-TEV-ProteinA-Histone3-HA (enzyme, UniProt P32485 1-435)
chain: MTTNEEFIRTQIFGTVFEITNRYNDLNPVGMGAFGLVCSATDTLTSQPVAIKKIMKPFSTAVLAKRTYRELKLLKHLRHENLICLQDIFLSPLEDIYFVTELQGTDLHRLLQTRPLEKQFVQYFLYQILRGLKYVHSAGVIHRDLKPSNILINENCDLKICDFGLARIQDPQMTGYVSTRYYRAPEIMLTWQKYDVEVDIWSAGCIFAEMIEGKPLFPGKDHVHQFSIITDLLGSPPKDVINTICSENTLKFVTSLPHRDPIPFSERFKTVEPDAVDLLEKMLVFDPKKRITAADALAHPYSAPYHDPTDEPVADAKFDWHFNDADLPVDTWRVMMYSEILDFHKIGGSDGQIDISATFDDQVAAATAAAAQAQAQAQAQVQLNMAAHSHNGAGTTGNDHSDIAGGNKVSDHVAANDTITDYGNQAIQYANEFQQ
